This is one part of the list.

The chains behind the UniProt entries cited, without tags or fusion partners. Where a name states a change or a piece, a line headed by the entry shows the natural chain unless it says otherwise.
UniProt P10620: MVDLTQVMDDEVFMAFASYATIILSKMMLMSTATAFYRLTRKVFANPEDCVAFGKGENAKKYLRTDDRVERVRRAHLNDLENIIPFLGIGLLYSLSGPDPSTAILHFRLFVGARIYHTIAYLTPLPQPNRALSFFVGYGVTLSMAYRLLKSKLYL
UniProt A9UHW6: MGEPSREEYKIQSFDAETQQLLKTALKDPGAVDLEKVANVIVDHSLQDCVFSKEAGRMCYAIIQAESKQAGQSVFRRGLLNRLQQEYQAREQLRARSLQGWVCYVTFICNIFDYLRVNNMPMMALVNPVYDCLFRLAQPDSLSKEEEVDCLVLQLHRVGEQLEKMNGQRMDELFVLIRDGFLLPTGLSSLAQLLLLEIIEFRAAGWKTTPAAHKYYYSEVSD
UniProt P34949: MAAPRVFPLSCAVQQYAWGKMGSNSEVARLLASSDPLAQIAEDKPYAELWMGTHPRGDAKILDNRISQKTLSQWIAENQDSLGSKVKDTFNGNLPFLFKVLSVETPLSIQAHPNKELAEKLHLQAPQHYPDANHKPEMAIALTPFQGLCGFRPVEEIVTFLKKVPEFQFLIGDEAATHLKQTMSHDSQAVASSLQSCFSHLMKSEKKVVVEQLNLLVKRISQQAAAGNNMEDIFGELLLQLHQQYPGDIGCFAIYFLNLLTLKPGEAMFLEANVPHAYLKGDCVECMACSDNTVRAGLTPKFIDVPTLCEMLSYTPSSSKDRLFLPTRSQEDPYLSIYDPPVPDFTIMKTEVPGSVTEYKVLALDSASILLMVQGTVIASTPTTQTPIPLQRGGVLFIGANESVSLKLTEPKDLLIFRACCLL
UniProt Q9NV56, whole entry, looked up: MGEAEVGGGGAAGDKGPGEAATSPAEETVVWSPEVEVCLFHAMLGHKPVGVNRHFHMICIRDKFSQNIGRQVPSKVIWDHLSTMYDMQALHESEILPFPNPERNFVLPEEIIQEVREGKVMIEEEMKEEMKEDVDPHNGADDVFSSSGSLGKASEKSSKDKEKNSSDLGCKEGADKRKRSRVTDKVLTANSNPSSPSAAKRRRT
UniProt Q9BU76: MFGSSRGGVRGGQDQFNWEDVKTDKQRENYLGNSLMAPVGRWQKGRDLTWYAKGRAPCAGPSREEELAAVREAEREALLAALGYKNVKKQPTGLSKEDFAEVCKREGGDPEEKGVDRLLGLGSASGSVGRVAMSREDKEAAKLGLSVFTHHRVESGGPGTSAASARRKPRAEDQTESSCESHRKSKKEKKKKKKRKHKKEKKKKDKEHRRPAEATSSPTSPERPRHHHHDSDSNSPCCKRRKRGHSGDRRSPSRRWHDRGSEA
UniProt O95297: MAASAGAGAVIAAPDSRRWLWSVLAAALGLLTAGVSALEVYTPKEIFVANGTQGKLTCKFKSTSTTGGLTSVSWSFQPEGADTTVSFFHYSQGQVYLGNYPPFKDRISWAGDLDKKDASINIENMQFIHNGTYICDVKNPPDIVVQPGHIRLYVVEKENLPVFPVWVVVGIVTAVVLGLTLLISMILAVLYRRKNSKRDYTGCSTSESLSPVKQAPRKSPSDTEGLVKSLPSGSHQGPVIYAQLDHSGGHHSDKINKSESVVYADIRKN
UniProt P25325: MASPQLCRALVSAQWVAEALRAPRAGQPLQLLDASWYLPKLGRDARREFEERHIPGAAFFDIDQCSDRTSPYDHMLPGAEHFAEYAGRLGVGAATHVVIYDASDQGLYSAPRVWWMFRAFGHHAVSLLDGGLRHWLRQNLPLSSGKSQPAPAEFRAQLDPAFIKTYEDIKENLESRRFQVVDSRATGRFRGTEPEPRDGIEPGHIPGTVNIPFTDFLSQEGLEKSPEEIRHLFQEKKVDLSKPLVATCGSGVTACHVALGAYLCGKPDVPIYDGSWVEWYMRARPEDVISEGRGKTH
UniProt Q5TGZ0: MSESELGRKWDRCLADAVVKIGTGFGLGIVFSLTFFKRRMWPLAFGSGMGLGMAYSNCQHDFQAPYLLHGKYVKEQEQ
UniProt P46013: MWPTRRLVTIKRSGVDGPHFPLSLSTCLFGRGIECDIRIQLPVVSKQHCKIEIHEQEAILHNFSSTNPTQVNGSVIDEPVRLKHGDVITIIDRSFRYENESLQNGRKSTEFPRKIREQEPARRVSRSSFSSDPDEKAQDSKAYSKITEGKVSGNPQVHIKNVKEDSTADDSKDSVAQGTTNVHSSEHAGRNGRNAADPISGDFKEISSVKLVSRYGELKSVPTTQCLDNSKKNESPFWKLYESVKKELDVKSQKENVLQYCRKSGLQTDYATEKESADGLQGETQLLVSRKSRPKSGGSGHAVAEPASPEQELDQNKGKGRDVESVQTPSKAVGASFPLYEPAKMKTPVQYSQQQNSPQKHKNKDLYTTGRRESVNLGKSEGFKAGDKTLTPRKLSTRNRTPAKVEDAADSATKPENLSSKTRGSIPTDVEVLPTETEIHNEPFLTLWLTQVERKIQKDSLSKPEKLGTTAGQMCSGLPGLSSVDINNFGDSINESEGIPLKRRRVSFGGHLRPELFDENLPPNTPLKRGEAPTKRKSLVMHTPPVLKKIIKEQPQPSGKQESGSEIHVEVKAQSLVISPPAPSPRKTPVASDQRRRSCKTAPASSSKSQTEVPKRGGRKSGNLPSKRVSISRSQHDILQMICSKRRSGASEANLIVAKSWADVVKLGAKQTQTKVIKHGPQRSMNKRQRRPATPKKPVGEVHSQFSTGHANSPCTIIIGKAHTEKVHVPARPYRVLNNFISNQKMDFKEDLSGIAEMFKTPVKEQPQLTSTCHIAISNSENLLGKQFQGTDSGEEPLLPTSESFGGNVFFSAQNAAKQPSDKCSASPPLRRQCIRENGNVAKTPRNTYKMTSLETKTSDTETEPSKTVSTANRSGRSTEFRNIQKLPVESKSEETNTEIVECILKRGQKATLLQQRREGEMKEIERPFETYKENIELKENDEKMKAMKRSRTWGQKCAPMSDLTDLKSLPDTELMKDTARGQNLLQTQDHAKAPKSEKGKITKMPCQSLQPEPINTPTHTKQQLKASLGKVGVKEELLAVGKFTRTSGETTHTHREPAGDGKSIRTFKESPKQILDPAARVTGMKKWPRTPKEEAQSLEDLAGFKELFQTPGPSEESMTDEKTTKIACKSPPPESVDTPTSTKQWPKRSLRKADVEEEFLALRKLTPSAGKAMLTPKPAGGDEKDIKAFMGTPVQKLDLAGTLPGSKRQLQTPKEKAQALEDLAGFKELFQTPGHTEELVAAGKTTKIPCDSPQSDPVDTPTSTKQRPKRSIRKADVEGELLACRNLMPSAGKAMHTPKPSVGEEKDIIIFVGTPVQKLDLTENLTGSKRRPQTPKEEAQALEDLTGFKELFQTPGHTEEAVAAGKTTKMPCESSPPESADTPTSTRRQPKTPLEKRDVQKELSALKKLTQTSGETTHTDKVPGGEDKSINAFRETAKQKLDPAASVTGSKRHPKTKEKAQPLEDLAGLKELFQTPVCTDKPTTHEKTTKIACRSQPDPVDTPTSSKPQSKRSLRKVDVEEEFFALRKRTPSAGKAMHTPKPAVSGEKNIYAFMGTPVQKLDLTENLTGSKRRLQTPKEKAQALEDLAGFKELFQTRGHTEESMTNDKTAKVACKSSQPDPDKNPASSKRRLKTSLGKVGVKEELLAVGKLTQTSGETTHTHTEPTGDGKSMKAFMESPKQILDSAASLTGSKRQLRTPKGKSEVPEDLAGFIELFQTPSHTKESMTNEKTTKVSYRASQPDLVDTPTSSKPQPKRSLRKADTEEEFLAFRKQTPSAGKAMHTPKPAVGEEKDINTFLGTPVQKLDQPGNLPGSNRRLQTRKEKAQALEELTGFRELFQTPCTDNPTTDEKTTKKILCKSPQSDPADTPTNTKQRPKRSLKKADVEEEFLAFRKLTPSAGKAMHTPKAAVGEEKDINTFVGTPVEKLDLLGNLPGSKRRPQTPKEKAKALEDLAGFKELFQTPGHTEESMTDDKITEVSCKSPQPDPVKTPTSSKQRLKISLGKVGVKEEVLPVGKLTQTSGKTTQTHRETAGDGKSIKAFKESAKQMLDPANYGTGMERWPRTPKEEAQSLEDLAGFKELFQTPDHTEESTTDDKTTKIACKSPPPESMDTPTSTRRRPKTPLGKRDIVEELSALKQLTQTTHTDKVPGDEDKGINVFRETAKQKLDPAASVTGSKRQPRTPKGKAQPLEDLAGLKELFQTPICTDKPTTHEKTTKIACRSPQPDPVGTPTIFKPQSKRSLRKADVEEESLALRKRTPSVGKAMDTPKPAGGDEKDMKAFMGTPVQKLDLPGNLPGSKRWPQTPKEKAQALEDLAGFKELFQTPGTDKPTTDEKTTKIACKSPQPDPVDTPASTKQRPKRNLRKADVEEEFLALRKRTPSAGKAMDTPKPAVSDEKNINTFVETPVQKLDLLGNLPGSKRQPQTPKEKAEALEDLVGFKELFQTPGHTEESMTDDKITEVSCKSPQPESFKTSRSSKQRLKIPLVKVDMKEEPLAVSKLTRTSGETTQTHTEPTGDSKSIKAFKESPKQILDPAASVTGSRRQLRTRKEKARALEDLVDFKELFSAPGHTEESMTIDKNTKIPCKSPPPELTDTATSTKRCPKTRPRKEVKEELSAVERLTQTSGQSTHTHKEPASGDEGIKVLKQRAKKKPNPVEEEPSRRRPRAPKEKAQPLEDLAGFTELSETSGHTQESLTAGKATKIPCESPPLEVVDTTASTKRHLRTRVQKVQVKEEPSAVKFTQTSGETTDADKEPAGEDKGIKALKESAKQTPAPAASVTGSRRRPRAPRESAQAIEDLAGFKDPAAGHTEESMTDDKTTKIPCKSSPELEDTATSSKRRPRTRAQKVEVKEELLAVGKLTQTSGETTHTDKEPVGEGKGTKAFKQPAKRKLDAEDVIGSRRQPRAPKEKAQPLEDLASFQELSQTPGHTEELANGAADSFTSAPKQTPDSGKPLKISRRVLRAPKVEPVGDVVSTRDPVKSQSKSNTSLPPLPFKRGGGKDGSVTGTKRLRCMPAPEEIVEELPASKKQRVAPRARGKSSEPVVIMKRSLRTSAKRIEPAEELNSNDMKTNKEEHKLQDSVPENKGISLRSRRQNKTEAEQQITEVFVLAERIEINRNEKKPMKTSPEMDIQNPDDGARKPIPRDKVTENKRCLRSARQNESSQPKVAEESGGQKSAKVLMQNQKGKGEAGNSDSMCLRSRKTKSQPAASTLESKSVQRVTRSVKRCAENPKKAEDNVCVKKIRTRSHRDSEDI
UniProt Q8IY33: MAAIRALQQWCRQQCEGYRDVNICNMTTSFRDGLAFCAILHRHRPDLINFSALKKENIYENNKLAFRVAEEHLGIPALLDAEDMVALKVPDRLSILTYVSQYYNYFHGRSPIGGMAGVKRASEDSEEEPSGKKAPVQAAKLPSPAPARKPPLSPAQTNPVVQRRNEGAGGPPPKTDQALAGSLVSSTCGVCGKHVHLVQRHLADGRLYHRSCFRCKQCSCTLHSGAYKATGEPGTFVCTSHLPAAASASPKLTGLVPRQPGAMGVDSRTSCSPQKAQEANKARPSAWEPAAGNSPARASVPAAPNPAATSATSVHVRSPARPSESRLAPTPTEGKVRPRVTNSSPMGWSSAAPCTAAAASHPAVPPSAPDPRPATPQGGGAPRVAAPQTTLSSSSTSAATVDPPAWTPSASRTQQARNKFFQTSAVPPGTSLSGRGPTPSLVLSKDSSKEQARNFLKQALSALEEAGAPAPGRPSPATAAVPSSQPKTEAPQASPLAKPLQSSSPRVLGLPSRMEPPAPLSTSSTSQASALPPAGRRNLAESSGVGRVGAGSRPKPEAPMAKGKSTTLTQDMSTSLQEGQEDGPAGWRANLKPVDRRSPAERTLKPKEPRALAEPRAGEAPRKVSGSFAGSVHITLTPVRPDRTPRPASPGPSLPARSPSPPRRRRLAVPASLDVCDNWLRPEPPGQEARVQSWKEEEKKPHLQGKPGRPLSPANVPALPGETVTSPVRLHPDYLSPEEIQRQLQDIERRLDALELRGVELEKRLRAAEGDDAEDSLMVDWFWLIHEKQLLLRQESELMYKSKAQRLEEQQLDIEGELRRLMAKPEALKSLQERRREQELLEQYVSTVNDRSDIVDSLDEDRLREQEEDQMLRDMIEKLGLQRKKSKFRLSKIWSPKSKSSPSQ
UniProt Q00013: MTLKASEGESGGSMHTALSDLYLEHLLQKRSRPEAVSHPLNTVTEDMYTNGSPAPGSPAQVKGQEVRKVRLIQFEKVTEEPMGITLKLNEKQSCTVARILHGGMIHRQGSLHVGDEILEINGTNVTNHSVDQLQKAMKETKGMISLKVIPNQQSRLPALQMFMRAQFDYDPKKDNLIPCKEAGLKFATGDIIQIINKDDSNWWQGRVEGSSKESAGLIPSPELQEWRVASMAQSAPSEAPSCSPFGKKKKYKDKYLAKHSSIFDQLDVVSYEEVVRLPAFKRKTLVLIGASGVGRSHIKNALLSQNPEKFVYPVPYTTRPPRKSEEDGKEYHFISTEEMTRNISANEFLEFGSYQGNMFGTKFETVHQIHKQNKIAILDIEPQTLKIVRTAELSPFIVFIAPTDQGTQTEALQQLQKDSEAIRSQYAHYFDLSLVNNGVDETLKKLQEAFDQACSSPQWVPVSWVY

Compound in this assay: CCn1c(C(=O)N(C2CC2)C2CC2)cc2c3c(ncn3C)c(Nc3cc(C)n(C)n3)nc21
Briefly: log2 fold change, soluble protein after heating vs DMSO (PISA); higher = thermal stabilisation; K562 lysate, 10 uM; active = over 0.2 and 3.5 SD of the protein, either way, in both replicates (recomputed). Put shortly: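 Dounce homogenisation of K562 pellets in PBS pH 7.4 with 1 mM MgCl2 produced a crude extract, used at 1 mg/mL protein. Exposure to 10 μM compound lasted 30 min, and aliquots were then heated for 3 min across 48°C-58°C, pooled and brought to 0.5% NP-40 at 4°C. The supernatant after 21,000xg for 90 min was quantified by TMTpro 16plex LC-MS/MS with channel sums equalised. Duplicate values are given as log-two fold change in thermal stability relative to solvent controls.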
In the case of MGST1 (UniProt P10620), the log2 fold change is inactive: -0.036.

MRI1 (UniProt Q9BV20): the log2 fold change was inactive: 0.014.

For MOB4 (UniProt Q9Y3A3), the log2 fold change is inactive: -0.043.

On to MKNK1 (UniProt Q9BUB5), for which the log2 fold change was inactive: -0.044.

In the case of MIF4GD isoform 3 (UniProt A9UHW6), the log2 fold change was inactive: 0.037.

MRPL1 (UniProt Q9BYD6): the log2 fold change was inactive: -0.043.

On to MLX (UniProt Q9UH92), for which the log2 fold change is inactive: 0.

For the target MPI (UniProt P34949), the log2 fold change is inactive: -0.011.

Consider MRGBP (UniProt Q9NV56), for which the log2 fold change was inactive: -0.073.

As to MMTAG2 (UniProt Q9BU76), the log2 fold change is inactive: -0.02.

In the case of MPZL1 (UniProt O95297), the log2 fold change was inactive: 0.027.

MRPL23 (UniProt Q16540): the log2 fold change is inactive: -0.203.

Take MPST isoform 2 (UniProt P25325): the log2 fold change is inactive: -0.044.

As for MRPL15 (UniProt Q9P015), the log2 fold change was inactive: -0.062.

MICOS10 (UniProt Q5TGZ0): the log2 fold change is inactive: 0.02.

As for MIA2 (UniProt Q96PC5), the log2 fold change is inactive: -0.036.

Regarding MKI67 (UniProt P46013), the log2 fold change is inactive: 0.007.

Take MKRN1 (UniProt Q9UHC7): the log2 fold change is inactive: 0.056.

With MRPL14 (UniProt Q6P1L8), the log2 fold change is inactive: 0.078.

For the target MICALL1 (UniProt Q8N3F8), the log2 fold change was inactive: 0.007.

As to MICALL2 (UniProt Q8IY33), the log2 fold change was inactive: -0.008.

On to MINDY3 (UniProt Q9H8M7), for which the log2 fold change was inactive: -0.004.

As for MPP1 (UniProt Q00013), the log2 fold change was inactive: -0.011.

These data come from the supplement of paper PMC10849652.
